# From PubChem BioAssay AID445 (National Center for Advancing Translational Sciences (NCATS), 2006)
# This is one part of the list. These are further read-outs of the screen, such as a control signal, another cell line or another target. No call is given for them. The list favours compounds with an active or inconclusive main result. Words in brackets tell the shape of the fitted curve; partial curves, single points and poor fits give uncertain potencies.
# Test: IkB Signaling
# Settings: ABC-DLBCL IkBa-CBG/CBR dual luciferase ratio (green luciferase fused to IkBa over red control in OCI-Ly3 lymphoma cells), 4 h
# In short: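 Curves were fitted separately to fusion (green), unfused (red) and ratio luminescence, then classed by r2, magnitude and activity. Cells: OCI-Ly3, 4 h compound plus doxycycline at 37C; 10 uM MG-132 defined full response.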
# [1] = measured here: control luc red channel unless noted
# [2] = measured here: IkB-luc green channel
# [3] = measured here: control luc red channel
smiles,measurement,setting,value
O=C(NC1CCCCC1)c1ccc2c(c1)sc1nc(-c3ccc(F)cc3)cn12,AC50,[1],"25.1 µM [falling, single point]"
O=C(Nc1ccc2c(c1)OCCO2)NC1CCCCC1,AC50,[1],"10 µM [falling, partial curve]"
Cc1ccc(-n2nc(C(=O)N3CCN(c4ccc(F)cc4)CC3)c(=O)n(C)c2=O)cc1,AC50,[1],"0.794 µM [falling, full curve]"
OC(COc1cccc2ccccc12)CN1CCN(c2ccccn2)CC1 (stereo not drawn),AC50,[1],"10 µM [falling, partial curve]"
Cc1ccc(NC(=O)CSc2nc3ccc(Br)cc3[nH]2)c(C)c1,AC50,[1],"25.1 µM [falling, single point]"
CC1CCN(C(=O)CSc2c3c(nc4ccc(Cl)cc24)CCCC3)CC1,AC50,[1],"12.6 µM [falling, partial curve]"
CCOc1ccc(N(Cc2ccccc2)C(=O)c2nc(SCC)ncc2Cl)cc1,AC50,[1],"15.8 µM [falling, single point]"
Cc1cccc(NC(=O)CSc2nc3ccccc3nc2N2CCC(C)CC2)c1,AC50,[1],"20 µM [falling, partial curve]"
COc1ccc(S(=O)(=O)N(CC(=O)Nc2ccc(F)c(Cl)c2)c2ccc(C)cc2)cc1OC,AC50,[1],"7.94 µM [falling, partial curve]"
O=C(Nc1cccc(Cn2cccn2)c1)c1cc2c(s1)CCCC2,AC50,[2],"39.8 µM [falling, single point]"
same,AC50,[3],"15.8 µM [falling, partial curve]"
O=C(c1cnn2c1NC(c1ccco1)CC2C(F)(F)F)N1CCN(c2cccc(Cl)c2)CC1 (stereo not drawn),AC50,[1],"10 µM [falling, partial curve]"
CCOc1ccc(N(CC(=O)Nc2ccc3c(c2)OCCO3)S(=O)(=O)c2c(C)noc2C)cc1,AC50,[1],"10 µM [falling, partial curve]"
Cn1cnc2c(NCc3ccccc3)nc(NCCO)nc21,AC50,[1],"39.8 µM [falling, partial curve, poor fit]"
Cc1cccc(CSc2nc3c(c(=O)[nH]2)CCC3)c1,AC50,[1],"0.2 µM [falling, full curve]"
CCc1ccc(C2CC(=O)c3c([nH]c(C(=O)OC4CCC(C)CC4)c3C)C2)cc1 (stereo not drawn),AC50,[1],"0.2 µM [rising, full curve, poor fit]"
COc1ccc(S(=O)(=O)NCc2cccn2Cc2cccc(C)c2)cc1Cl,AC50,[1],"39.8 µM [falling, single point]"
COc1cccc(C(=O)Nc2ccc(NC(=O)C3CC3)cn2)c1,AC50,[1],"12.6 µM [falling, partial curve]"
CCS(=O)(=O)N1CCc2cc(C(=O)N3CCN(c4ccc(OC)cc4)CC3)ccc21,AC50,[1],"12.6 µM [falling, partial curve]"
COc1ccc(OC)c(S(=O)(=O)N2Cc3ccccc3CC2C(=O)Nc2ccc(C)cc2C)c1 (stereo not drawn),AC50,[1],"25.1 µM [falling, single point]"
COc1ccc(-c2nc(SCC(=O)Nc3ccccc3)c(-c3ccc(F)cc3)[nH]2)cc1OC,AC50,[1],"12.6 µM [falling, partial curve]"
COC(=O)c1ccc(CSc2nc3c([nH]c4ccccc43)c(=O)n2-c2ccc(F)cc2)o1,AC50,[1],"25.1 µM [rising, single point]"
CCc1cccc(NC(=O)Cn2c(=O)n(-c3ccccc3C)c(=O)c3c2c2cc(C)ccc2n3C)c1,AC50,[1],"1.26 µM [falling, full curve]"
Cc1ccc(Cl)cc1-n1c(CCC(=O)O)ccc1-c1cccs1,AC50,[1],"5.01 µM [falling, partial curve]"
Cc1ccccc1CN1CCc2nc(N3CCN(c4ncccn4)CC3)ncc2C1,AC50,[1],"39.8 µM [falling, single point]"
Cc1ccc(CNC(=O)c2ccc(CS(=O)(=O)Cc3ccc(F)cc3)o2)cc1,AC50,[1],"0.01 µM [rising, full curve]"
CCCCc1nn2c(=O)cc(COC(=O)c3cccc(NC(=O)c4cccc(Cl)c4)c3)nc2s1,AC50,[1],"2.51 µM [falling, full curve]"
COc1ccc(CCCc2nnc(SCC(=O)Nc3cccc(C)c3)o2)cc1C,AC50,[1],"7.94 µM [falling, full curve]"
Cc1cccc(N2CCN(S(=O)(=O)c3cn(C)c(C)n3)CC2)c1C,AC50,[1],"0.794 µM [rising, single point]"
CCOc1ccccc1C(=O)Oc1c(S(=O)(=O)c2ccc(C)cc2)c(C)nn1-c1ccccc1,AC50,[1],"7.94 µM [falling, full curve]"
COc1ccc(N(C)C(=O)c2nn(-c3ccc(C)cc3)c(=O)n(C)c2=O)c(OC)c1,AC50,[1],"0.00501 µM [falling, full curve, poor fit]"
Cc1cc(C)cc(NC(=O)N2CCC(C(N)=O)(N3CCCCC3)CC2)c1,AC50,[1],"39.8 µM [falling, single point]"
COc1cc(C(c2nnnn2C(C)(C)C)N2CCN(c3nc4ccccc4s3)CC2)ccc1O (stereo not drawn),AC50,[1],"39.8 µM [rising, single point] [measured here: IkB-luc green channel]"
COc1ccc(C(=O)COC(=O)CCn2nnc(-c3cccc(O)c3OC)n2)cc1,AC50,[1],"1.26 µM [falling, full curve] [measured here: IkB-luc green channel]"
COc1ccc(N2CC(NC(=O)C(=O)c3c[nH]c4ccccc34)CC2=O)cc1 (stereo not drawn),AC50,[1],"39.8 µM [falling, single point]"
CCN(CC)c1cc(C)c2cc(NC(=O)/C=C/c3ccccc3Cl)ccc2n1,AC50,[1],"7.94 µM [falling, partial curve]"
COc1ccc(CNC(=O)CC(C)n2nc(C)cc2C)cc1 (stereo not drawn),AC50,[1],"0.501 µM [falling, partial curve]"
O=C(CCSCc1cccc(Cl)c1)NCc1ccccc1Cl,AC50,[1],"15.8 µM [falling, partial curve]"
CN1C(=O)c2ccc(NC(=O)c3c(F)c(F)c(F)c(F)c3F)cc2C1=O,AC50,[1],"7.94 µM [falling, full curve]"
O=c1c(N2CCN(c3ccccc3)CC2)csc2ccc(Cl)cc12,AC50,[1],"20 µM [falling, partial curve]"
CCOCCn1ccc2c(OCC(=O)NCc3ccc(F)cc3)cccc2c1=O,AC50,[1],"6.31 µM [rising, partial curve]"
COCCn1c(=O)[nH]c2cc(C(=O)N3CCN(c4ccc(Cl)cc4)CC3)ccc2c1=O,AC50,[1],"12.6 µM [falling, partial curve]"
Cc1ccc(C)c(N2CCN(C(=O)CCCn3c(=S)[nH]c4cc5c(cc4c3=O)OCO5)CC2)c1,AC50,[1],"3.98 µM [falling, full curve, poor fit]"
Cc1ccc(CN2CCC(CNC(=O)c3cnn(-c4ccccc4)c3C3CCN(C(=O)OC(C)(C)C)CC3)CC2)cc1,AC50,[1],"12.6 µM [falling, partial curve]"
COc1ccc(NC(=O)c2oc3ccc(S(=O)(=O)N4CCCCC4)cc3c2C)cc1Cl,AC50,[1],"7.94 µM [falling, partial curve]"
COc1ccc(NC(=O)c2cc(C(C)=O)n3ccccc23)cc1,AC50,[1],"10 µM [rising, partial curve] [measured here: IkB-luc green channel]"
N#CC1=C(N)SC(N)=C(C#N)C1c1cccc(Oc2ccccc2)c1,AC50,[1],"31.6 µM [rising, partial curve] [measured here: IkB-luc green channel]"
CCOc1cc2[nH]c(=O)n(Cc3ccc(C(=O)N4CCN(c5ccccc5)CC4)cc3)c(=O)c2cc1OCC,AC50,[1],"25.1 µM [falling, single point]"
COc1cc2c(=O)n(Cc3ccco3)c(=O)n(CC(=O)Nc3ccc(F)cc3)c2cc1OC,AC50,[1],"12.6 µM [falling, partial curve]"
Cc1nc(-c2ccc(Cl)cc2)sc1CCNC(=O)C(=O)Nc1ccc2c(c1)OCCO2,AC50,[1],"0.02 µM [rising, full curve]"
O=C(CSc1nc(=O)n(Cc2cccnc2)c2c1CCC2)Nc1cccc(Cl)c1,AC50,[1],"10 µM [falling, partial curve]"
Cc1ccc(Nc2nc(CSc3nnc(-c4cccs4)o3)cs2)cc1,AC50,[1],"25.1 µM [falling, single point]"
COc1cccc(-n2c(=O)c3c(C)c(C(=O)N(C)C)sc3n(Cc3cccc(C)c3)c2=O)c1,AC50,[1],"3.16 µM [rising, full curve]"
COc1ccc(-c2nc(C)c(CCNC(=O)C(=O)Nc3ccccc3F)s2)cc1,AC50,[1],"1.26 µM [rising, full curve]"
O=C(CNC(=O)c1ccccc1C(=O)O)c1ccccc1,AC50,[1],"1 µM [falling, partial curve]"
COc1ccc(CCN2CCC(CNC(=O)c3cnn(-c4ccc(C)cc4)c3C3CCN(C(=O)OC(C)(C)C)CC3)CC2)cc1,AC50,[1],"25.1 µM [falling, single point]"
CC(=O)Nc1cccc(NC(=O)CSc2ncc(-c3ccc(Cl)cc3)n2Cc2ccco2)c1,AC50,[1],"7.94 µM [falling, full curve]"
COc1ccc(C2CC(=O)N(Cc3ccccc3C)c3c2c(C)nn3-c2nc(C)cc(C)n2)c(OC)c1 (stereo not drawn),AC50,[1],"12.6 µM [falling, single point]"
COc1ccc(-c2nc3c4ccccc4n(CC(=O)Nc4ccc(C(C)C)cc4)c(=O)n3n2)cc1,AC50,[1],"3.98 µM [rising, single point]"
O=C(c1cccc(-c2nnc(-c3ccccc3)o2)c1)N1CCCCC1,AC50,[1],"31.6 µM [falling, single point]"
Cc1ccccc1-n1c(SCC(=O)Nc2ccc(Cl)cc2Cl)nc(O)cc1=O,AC50,[1],"20 µM [falling, single point]"
Cc1cccc(N(C)S(=O)(=O)c2ccc(-c3cc(C)no3)s2)c1,AC50,[2],"15.8 µM [rising, partial curve]"
same,AC50,[3],"3.16 µM [rising, partial curve]"

# Fetched one by one from the entries so far, four records:
smiles,measurement,setting,value
CCS(=O)(=O)N1CCc2cc(C(=O)N3CCN(c4ccc(OC)cc4)CC3)ccc21,AC50,[1],"12.6 µM [falling, partial curve]"
Cc1ccccc1-n1c(SCC(=O)Nc2ccc(Cl)cc2Cl)nc(O)cc1=O,AC50,[1],"20 µM [falling, single point]"
COc1ccc(C(=O)COC(=O)CCn2nnc(-c3cccc(O)c3OC)n2)cc1,AC50,[1],"1.26 µM [falling, full curve] [measured here: IkB-luc green channel]"
COc1ccc(-c2nc3c4ccccc4n(CC(=O)Nc4ccc(C(C)C)cc4)c(=O)n3n2)cc1,AC50,[1],"3.98 µM [rising, single point]"
